doi:10.1101/2020.12.24.423824 (bioRxiv, 2020)
No constants are given. Whether binding was seen depends on the method and setting. In cells and extracts the contact can be indirect. Binding can be weak; no strength is given.

Target: T1, CLN3 (UniProt Q13286)
T1 sequence: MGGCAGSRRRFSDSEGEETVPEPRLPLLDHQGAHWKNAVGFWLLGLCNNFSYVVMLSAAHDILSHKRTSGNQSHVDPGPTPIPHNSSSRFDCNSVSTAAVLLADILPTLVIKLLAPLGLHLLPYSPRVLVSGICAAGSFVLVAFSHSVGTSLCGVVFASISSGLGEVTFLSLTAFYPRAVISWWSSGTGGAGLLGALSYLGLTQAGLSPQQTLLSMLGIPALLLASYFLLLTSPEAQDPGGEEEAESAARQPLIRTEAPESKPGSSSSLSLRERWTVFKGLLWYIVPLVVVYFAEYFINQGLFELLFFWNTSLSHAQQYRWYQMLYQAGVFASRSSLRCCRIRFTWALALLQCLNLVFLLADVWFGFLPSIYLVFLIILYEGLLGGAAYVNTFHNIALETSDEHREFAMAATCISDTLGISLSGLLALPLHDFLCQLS
Assay: co-IP

binding: binds
Substance: CLN5^Y392X
